# Patent EP1042293B9, “SUBSTITUTED PYRIDINE AND PYRIDAZINE COMPOUNDS AND THEIR PHARMACEUTICAL USE” (AMGEN INC., priority 1997, dated 1999)
# Where two headings read alike, the source gives them in different places. Some entries share one result that the patent states for a list of compounds.
# Test system: TNF production by monocytes activated with bacterial lipopolysaccharide (LPS)
# Assay: Lipopolysaccharide-activated monocyte TNF production assay
# Type: cell-based, human
# Conditions: adherent PBMC-derived monocytes, LPS from E. coli, 4 hrs, TNF in supernatant by ELISA, read-out: IC50 values in the monocyte assay (LPS induced TNF release)
# Experimental: Test compounds were evaluated in vitro for the ability to inhibit the production of TNF by monocytes activated with bacterial lipopolysaccharide (LPS). Fresh residual source leukocytes (a byproduct of plateletpheresis) were obtained from a local blood bank, and peripheral blood mononuclear cells (PBMCs) were isolated by density gradient centrifugation on Ficol-Paque Plus (Pharmacia). PBMCs were suspended at […] /ml in DMEM supplemented to contain 2% FCS, 10 mM, 0.3 mg/ml glutamate, 100 U/ml penicillin G and […] streptomycin sulfate (complete media). Cells were plated into Falcon flat bottom, 96 well culture plates (200 µl/well) and cultured overnight at 37°C and 6% CO2. Non-adherent cells were removed by washing with 200 µl/well of fresh medium. Wells containing adherent cells (~70% monocytes) were replenished with 100 µl of fresh medium.
# Test compounds were dissolved in […]. Compound stock solutions were prepared to an initial concentration of […]. Stocks were diluted initially to 20 - 200 µM in complete media. Nine twofold serial dilutions of each compound were then prepared in complete medium.
# One hundred microliters of each test compound dilution were added to microtiter wells containing adherent monocytes and 100 µl complete medium. Monocytes were cultured with test compounds for 60 min at which time 25 µl of complete medium containing 30 ng/ml lipopolysaccharide from E. coli K532 were added to each well. Cells were cultured an additional 4 hrs. Culture supernatants were then removed and TNF presence in the supernatants was quantified using an ELISA.
# Flat bottom, 96 well Corning High Binding ELISA plates were coated overnight (4°C) with 150 µL/well of 3 µg/ml murine anti-human TNF-α MAb (R&D Systems #MAB210). Wells were then blocked for 1 hr at room temperature with 200 µL/well of CaCl2-free ELISA buffer supplemented to contain 20 mg/ml BSA (standard ELISA buffer: […], 150 mM NaCl, 2 mM CaCl2, 0.15 mM thimerosal, pH 7.4). Plates were washed and replenished with 100 µl of test supernatants (diluted 1:3) or standards. Standards consisted of eleven 1.5-fold serial dilutions from a stock of 1 ng/ml recombinant human TNF (R&D Systems). Plates were incubated at room temperature for 1 hr on orbital shaker (300 rpm), washed and replenished with 100 µl/well of 0.5 µg/ml goat anti-human TNF-α (R&D systems #AB-210-NA) biotinylated at a 4:1 ratio. Plates were incubated for 40 min, washed and replenished with 100 µl/well of alkaline phosphatase-conjugated streptavidin (Jackson ImmunoResearch #016-050-084) at 0.02 µg/ml. […]
# Standard curve data were fit to a second order polynomial and unknown TNF-α concentrations determined from their OD by solving this equation for concentration. […]
SMILES,IC50 (listed as 6-(S)-2-Amino-3-phenylpropylamino)-3-(3-methylphenyll-2-(4-pyridyl)pyridine) [µM],IC50 [µM],IC50 (listed as 2-(3-amino-3-phenylpropylamino)-5-(3-fluorophenyl)-4-(9-pyridinyl)pyridine) [µM]
"Cc1cccc(-c2ccc(NC[C@@H](N)Cc3ccccc3)nc2-c2ccncc2)c1 [Example 4A, 6-((S)-2-Amino-3-phenylpropylamino) -3-(3-methylphenyl)-2-(4-pyridyl)pyridine]",≤ 20,≤ 5,–
"NC(CCNc1cc(-c2ccncc2)c(-c2cccc(F)c2)cn1)c1ccccc1 (stereo not shown) [Example 10d, 2-(3-amino-3-phenylpropylamino)-5-(3-fluorophenyl)-4-(4-pyridinyl)pyridine]",–,≤ 5,≤ 20
